From PubChem BioAssay (EPA / NIEHS)
This list was built around the results that the source calls inconclusive (neither active nor inactive); the mix of calls is not that of the screen. A potency beside an inconclusive call is a rough fit, not a confirmed value. Activity calls are given as the source filed them. Rule for the calls: active = hit-call score of the fitted dose curve at least 0.9, where 1 is the maximum; inconclusive = response in the unintended direction; inactive = score below 0.9.

These compounds were tested against human Phosphodiesterase 5 (PDE5), PDE5A (gene 8654) (UniProt O76074) (assay: NVS_ENZ_hPDE5: NovaScreen (NVS) Enzymatic Assay for human Phosphodiesterase 5 (PDE5) (AID 2283194)).
How it was run: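 Recombinant human PDE5 with specific substrate, read 1 h after dosing by fluorescence with electrophoretic mobility-shift separation of substrate and product. Initial single-concentration duplicate screen at 25 uM, actives followed in concentration series; loss of activity versus DMSO.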

SMILES	AC50	outcome
COC(=O)c1ccc(C(=O)OC)cc1	inconclusive: 25 µM	–
CCCCCCCCCCCCCCCCO	inconclusive: 25 µM	–
CC(C)=CCCC(C)=CC=O	inconclusive: 25 µM	–
CCCC(=O)OCCC(C)C	inconclusive: 25 µM	–
CN(C)C(=O)NC1(c2ccccc2)CCN(CCC[C@]2(c3ccc(Cl)c(Cl)c3)CCCN(C(=O)c3ccccc3)C2)CC1	inconclusive: 1.02 µM	–
CSC(=O)c1cccc2nnsc12	–	inactive
COc1cccc([C@H](O)C2CCN(CCc3ccc(F)cc3)CC2)c1OC	–	inactive
COC(=O)CCC(=O)OC	inconclusive: 0.0604 µM	–
N#C[C@@H]1CC(F)(F)CN1C(=O)CNC1CC2CCC(C1)N2c1ncccn1 (some centres not stated)	inconclusive: 25 µM	–
COc1ccc(S(=O)(=O)N2C(=O)[C@@](c3ccccc3OC)(N3C[C@H](O)C[C@H]3C(=O)N(C)C)c3cc(Cl)ccc32)c(OC)c1	inconclusive: 0.942 µM	–
Cc1ccc(S(=O)(=O)O)cc1C	inconclusive: 25 µM	–
CC1(C)C(=O)NC(=O)N1CO	–	inactive

Some of the entries so far, field by field.
Cc1ccc(S(=O)(=O)O)cc1C
  AC50: inconclusive: 25 µM
CC1(C)C(=O)NC(=O)N1CO
  outcome: inactive
